Among the data in publication PMC5643326 are binding values, retold here.

Results are given in words; binding and its absence hold for the method and conditions named. In cells and extracts the contact can be indirect. Some entries that bind do so weakly or less than the wild type. Where a sequence is shown, tags or fusion partners need not be part of it.

The target in this test is T1, Sch9-FLAG (yeast) (UniProt P11792).
T1 sequence: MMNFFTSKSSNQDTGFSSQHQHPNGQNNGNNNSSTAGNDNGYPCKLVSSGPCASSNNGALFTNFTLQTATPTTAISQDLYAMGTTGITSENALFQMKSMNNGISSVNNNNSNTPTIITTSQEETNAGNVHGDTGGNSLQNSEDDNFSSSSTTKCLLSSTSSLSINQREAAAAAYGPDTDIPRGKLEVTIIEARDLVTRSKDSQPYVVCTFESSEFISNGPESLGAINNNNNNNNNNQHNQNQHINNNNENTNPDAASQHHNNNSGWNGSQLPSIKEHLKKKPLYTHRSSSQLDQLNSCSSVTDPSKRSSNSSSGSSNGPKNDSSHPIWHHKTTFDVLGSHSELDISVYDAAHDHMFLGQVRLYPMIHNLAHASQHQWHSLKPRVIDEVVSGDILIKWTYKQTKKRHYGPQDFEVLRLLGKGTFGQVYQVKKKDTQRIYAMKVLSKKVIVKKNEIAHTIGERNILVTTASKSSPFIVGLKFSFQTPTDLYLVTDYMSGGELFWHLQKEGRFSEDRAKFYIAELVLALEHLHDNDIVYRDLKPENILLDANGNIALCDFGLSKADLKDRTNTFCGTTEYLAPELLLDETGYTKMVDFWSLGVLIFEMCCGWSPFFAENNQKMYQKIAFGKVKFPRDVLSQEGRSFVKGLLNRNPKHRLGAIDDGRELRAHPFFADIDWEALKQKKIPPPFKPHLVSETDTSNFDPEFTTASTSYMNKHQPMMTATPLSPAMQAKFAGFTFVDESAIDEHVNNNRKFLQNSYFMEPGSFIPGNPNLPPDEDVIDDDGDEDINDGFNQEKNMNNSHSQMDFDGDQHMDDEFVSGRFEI
Description: co-IP; Sch9-FLAG from cleared glass bead lysate (30-35 mg total protein) of Δsch9 + pYEPlac195-Sch9-FLAG cells bound to anti-FLAG M2 beads, 1 h at 4 °C; 20 mM HEPES-KOH, 150 mM potassium acetate, 2 mM magnesium acetate, 10% glycerol, pH 7.5; wash with 0.1% Triton X-100, then without detergent; immunoblot with α-Sch9, α-Ssb, α-Maf1; control: untagged Sch9.

B1: Maf1 (protein, UniProt P41910 1-395)
chain: MKFIDELDIERVNQTLNFETNDCKIVGSCDIFTTKAVASDRKLYKTIDQHLDTILQENENYNATLQQQLAAPETNQSPCSSPFYSNRRDSNSFWEQKRRISFSEYNSNNNTNNSNGNSSNNNNYSGPNGSSPATFPKSAKLNDQNLKELVSNYDSGSMSSSSLDSSSKNDERIRRRSSSSISSFKSGKSSNNNYSSGTATNNVNKRRKSSINERPSNLSLGPFGPINEPSSRKIFAYLIAILNASYPDHDFSSVEPTDFVKTSLKTFISKFENTLYSLGRQPEEWVWEVINSHMTLSDCVLFQYSPSNSFLEDEPGYLWNLIGFLYNRKRKRVAYLYLICSRLNSSTGEVEDALAKKPQGKLIIDDGSNEYEGEYDFTYDENVIDDKSDQEESLQ
For the molecule B1, the binding entry is on record as “binds weakly”.
